The supplement of paper PMC10338343
± gives the standard deviation. The list shows a part of the results, in another mix than the full data. Many of these values have a large error. The list shows a part of the results.

Key:
[1] = system: MILI (PIWIL2) piRISC loaded with L1MC piRNA (26 nt); test: pre-steady-state target cleavage rate (min^-1); higher = faster piRNA-guided slicing of the target; settings: guide: L1MC piRNA 5'p-UAACUAAAUACUAUGCAAGCUGUAGG;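 note: 1 nM active piRISC with 0.1 nM target library at 33 °C single turnover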
How it was run: (§1)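 The pre-steady-state cleavage rate was derived from a burst-and-steady-state fit of Cleave-'n-Seq data. For these assays, 1 nM active affinity-purified piRISC loaded with a single synthetic guide was mixed with […] a transcribed, DNA-blocked target RNA library in HEPES–potassium acetate buffer at 33 °C, with or without 500 nM GTSF1 partner protein, for 0–8 or 0–960 min. Sequencing counts of uncleaved targets were normalised to depth and to weakly complementary targets, and k3 was capped at 0.0001 min^-1 after three trials were pooled.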

[2] = system: EfPiwi piRISC loaded with L1MC piRNA (26 nt); test: pre-steady-state target cleavage rate (min^-1); guide: L1MC piRNA 5'p-UAACUAAAUACUAUGCAAGCUGUAGG; MIWI and MILI are mouse PIWI proteins and EfPiwi is from a freshwater sponge; tags in brackets are library labels; higher = faster piRNA-guided slicing of the target
How it was run: as §1

[3] = auxiliary factor: none (no GTSF1)
[4] = auxiliary factor: 500 nM Ephydatia muelleri Gtsf1
[5] = auxiliary factor: none (no Gtsf1)

Sequence | pre-steady-state target cleavage rate [1, 3] | pre-steady-state target cleavage rate [2, 4] | pre-steady-state target cleavage rate [2, 5] | pre-steady-state target cleavage rate ([1]; auxiliary factor: 500 nM mouse GTSF1)
UCCUGGUACAGCUUGCAUAGUAUUUUCUUA | 0.0021 ± 0.0048 | 0.00532 ± 0.0034 | 0.000517 ± 0.038 | 
UCCUGGAUGUGCUUGCAUAGUAUUUACAUA | 0.001 ± 0.0061 | 0.00301 ± 0.0037 | 0.000341 ± 0.032 | 
UCCUGGAUGAGCUUGCAUAGUAUUUCGUUA | 0.00132 ± 0.0061 | 0.00352 ± 0.0019 | 0.000831 ± 0.01 | 
UCCUGGAUGUGCUUGCAUAGUUUUUUGUUA | 0.00118 ± 0.0082 | 0.000902 ± 0.0061 | 0.000246 ± 0.043 | 
UCCUGGAUGUGCUUGCAUAGUAUAUAGUAA | 0.00105 ± 0.0068 | 0.000759 ± 0.0047 | 0.000279 ± 0.032 | 
UCCUGGUACAGCUUGCAAAGUAUAUAGUUA | 0.00308 ± 0.0032 | 0.00285 ± 0.0041 | 0.000606 ± 0.014 | 
UCCUGGAUGAGCUUGCAUAGCAUUUAGUUA | 0.00238 ± 0.0031 | 0.0029 ± 0.0019 | 0.00185 ± 0.0058 | 
UCCUGGAUCAGCUUGCAUAGUAUAAUGUUA | 0.00279 ± 0.0033 | 0.0022 ± 0.0027 | 0.000729 ± 0.012 | 
UCCUGGUACUGCUUGCAUAGUAUUAAGUUA | 0.0026 ± 0.0036 | 0.00169 ± 0.0032 | 0.000867 ± 0.0095 | 
UCCUGGAUGACCUUGCAUAGUAAUUAGUUA | 0.00314 ± 0.0032 | 0.00204 ± 0.0029 | 0.00116 ± 0.0096 | 
UCCUGGAUCAGCAUGCAUAGUAUAUAGUUA |  | 0.00329 ± 0.0028 | 0.00098 ± 0.01 | 0.297 ± 0.018
UCCUGGAACAGCUUGCAUAGUUAAUAGUUA | 0.00197 ± 0.0036 | 0.00262 ± 0.0028 | 0.000729 ± 0.018 | 
UCCUGCUACAGCUUGCAUAGUAUAAUCAAA | 0.0012 ± 0.0053 | 0.00391 ± 0.0037 | 0.000452 ± 0.015 | 
UCCUGGAACAGCUUGCAUACAAUUUUCAAA | 0.000201 ± 0.014 | 0.000476 ± 0.0083 | 0.000529 ± 0.014 | 
UCCUGGAACAGCUUGGAUAGAAUUUAGUUA | 0.00241 ± 0.003 | 0.00165 ± 0.0029 | 0.000159 ± 0.021 | 
UCCUGGAUGUCGAAGCAUAGUAUGUAGUUA | 0.00156 ± 0.004 | 0.000232 ± 0.019 | 0.000223 ± 0.031 | 
UCCUGGAACAGCUUGCAUAGUAUAAAGUAA | 0.00168 ± 0.0043 | 0.00132 ± 0.0037 | 0.000356 ± 0.028 | 
UCCUGGAUGAGCUUGCAUUGUAUUUUGUUA | 0.00276 ± 0.0035 | 0.00107 ± 0.0048 | 0.000237 ± 0.043 | 
UCCUGGAUGUCGAUGCAUAGCAUUUAGUUA | 0.00179 ± 0.0029 | 0.000498 ± 0.0067 | 0.000428 ± 0.01 | 
UCCUGGUACAGCUUGGAUAGUAUUUACUUA | 0.00107 ± 0.0078 | 0.000749 ± 0.0047 | 0.000338 ± 0.02 | 
UCCUGGAUGAGCUUGCAUAGUAUUUAGUCUA | 0.00246 ± 0.0033 | 0.00413 ± 0.0026 | 0.000224 ± 0.035 | 
UCCUGGAUGUCCUUGCAUAGUAUUUACUUA | 0.00223 ± 0.0034 | 0.00202 ± 0.0037 | 0.00016 ± 0.042 | 
UCCUCCUACAGGUUGCAUAGAAUUUAGUUA | 0.00186 ± 0.0031 | 0.0062 ± 0.0014 | 0.00268 ± 0.004 | 
UCCUGGUACAGCUUGCAUAGAAUUUACUUA | 0.00217 ± 0.0062 | 0.00101 ± 0.0035 | < 0.0001 | 
UCCUGCUUGAGCUUGCAUAGUAUUUAGAAA | 0.00152 ± 0.0039 | 0.00479 ± 0.0016 | 0.000618 ± 0.011 | 

Some values from the results shown:
For pre-steady-state target cleavage rate [1, 3], UCCUGCUUGAGCUUGCAUAGUAUUUAGAAA reads 0.00152 ± 0.0039
For pre-steady-state target cleavage rate [2, 4], UCCUGGUACAGCUUGCAUAGAAUUUACUUA reads 0.00101 ± 0.0035
